Experimental findings from article PMC2848857, “The Crystal Structure of PPIL1 Bound to Cyclosporine A Suggests a Binding Mode for a Linear Epitope of the SKIP Protein” (PLoS ONE, 2010) are described below.

These are yes or no findings as the source states them, for the method shown. Where a sequence is shown, tags or fusion partners need not be part of it.

This assay deals with GST alone. Nature of the assay: condition: 50 µg of purified PPIL1 with 20 µl of beads; pull-down; GST or GST-SKIP43-79 on glutathione-sepharose beads; 50 µg purified PPIL1 with 20 µl beads, 2 h at 4°C; washed with TET-150 (150 mM NaCl, 0.1% Triton X-100) or TET-1000 (1 M NaCl); SDS-PAGE, Coomassie; both purified.

B1: PPIL1 protein (purified, GST tag cleaved) (enzyme, UniProt Q9Y3C6 1-166)
chain: MAAIPPDSWQPPNVYLETSMGIIVLELYWKHAPKTCKNFAELARRGYYNGTKFHRIIKDFMIQGGDPTGTGRGGASIYGKQFEDELHPDLKFTGAGILAMANAGPDTNGSQFFVTLAPTQWLDGKHTIFGRVCQGIGMVNRVGMVETNSQDRPVDDVKIIKAYPSG
In the case of B1, the binding entry is “no binding”.
